Here are results for 42 sequences from paper PMC7819943, “Rice protein-binding microarrays: a tool to detect cis-acting elements near promoter regions in rice”.

Some of the results follow.

The experiment deals with T1, OsSMF1 (Oryza sativa, UniProt Q6ZLB0 1-436).
T1 sequence: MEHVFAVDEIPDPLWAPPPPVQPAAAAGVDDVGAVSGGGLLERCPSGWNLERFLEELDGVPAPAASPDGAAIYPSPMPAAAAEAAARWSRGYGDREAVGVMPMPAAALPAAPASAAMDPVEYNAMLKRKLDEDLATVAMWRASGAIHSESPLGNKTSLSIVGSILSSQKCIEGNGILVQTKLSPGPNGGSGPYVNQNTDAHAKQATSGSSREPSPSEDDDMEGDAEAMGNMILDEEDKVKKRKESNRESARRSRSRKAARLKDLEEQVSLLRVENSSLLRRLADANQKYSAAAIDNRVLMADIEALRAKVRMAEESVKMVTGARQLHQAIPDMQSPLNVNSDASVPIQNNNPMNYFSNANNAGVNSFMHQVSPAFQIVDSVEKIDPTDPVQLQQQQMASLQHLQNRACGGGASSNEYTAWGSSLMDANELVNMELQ
Put plainly: protein-binding microarray (RPBM); PBS, 2% BSA, 51.3 ng/ul salmon testes DNA, 50 uM zinc acetate, 200 nM TF, 25 C, 1 h; high values mean tight binding. The conditions noted are these: protein: recombinant; tags: N-terminal polyhistidine and DsRed monomer fusion (pET32a); chain copies: 2; label: CyDye5-dUTP incorporated in the synthesized complementary strand; 3' TTTTT single-stranded linker to array surface; dsDNA, one strand shown. The method, boiled down:
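The binding signal is fluorescence intensity per array feature (arbitrary units). Readings came from an Axon 4000B scanner after a washed, 2% BSA-blocked, double-stranded custom Agilent array had been incubated for 1 h at 25 °C with 200 nM protein and 50 µM zinc acetate. The protein was a Ni–NTA-purified transcription factor fused N-terminally to polyhistidine and DsRed, expressed in E. coli BL21-CodonPlus.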
As to “AAATTTTAACTTATAGTGACGTGGACGAATCTCGAATGTCCGGAGTCACCTAGTGCAG”, the binding signal was 17200 fluorescence intensity (a.u.).
Take “GTCCTTCACATTACAACTTGTGATTCATGCCCCGTAATGGCGGAGTCACCTAGTGCAG”: the binding signal was 3240 fluorescence intensity (a.u.).
Under “TCCCTAACCCCAACCTCCGCAGCAAGCTCCACCACTTTGCCGGAGTCACCTAGTGCAG” stands 3350 fluorescence intensity (a.u.).
Consider “TTTGTTCCTCGATACATGACAATATATCACAAGCGACTATCGGAGTCACCTAGTGCAG”, for which the binding signal was 3560 fluorescence intensity (a.u.).
The same measure for “TCGCCGCCCAGATCCAGCAGCTCAAGAACACCGCCGGCGACGGAGTCACCTAGTGCAG”: 3350 fluorescence intensity (a.u.).
With “TAAATTTAGTTAATATGACATGTAAGCGCACTGTAATTTTCGGAGTCACCTAGTGCAG”, the binding signal was 4280 fluorescence intensity (a.u.).
“CTTCCCATTTCAATTTTCCTTTTCCCCTCATAAAATCACTCGGAGTCACCTAGTGCAG”: the binding signal was 3360 fluorescence intensity (a.u.).
For the sequence “CAAGCACACCAGACACCACACCGAGCCCGCCACGTCCACCCGGAGTCACCTAGTGCAG”, the binding signal is 9430 fluorescence intensity (a.u.).
The same measure for “TATATAGTTTTGGTAAAGAACATATTGATGACTCCTATTTCGGAGTCACCTAGTGCAG”: 3580 fluorescence intensity (a.u.).
On to “AGTTGATCGGTTGATGCGCTGTCTTTGTTGTTTTGTGGAACGGAGTCACCTAGTGCAG”, for which the binding signal was 3810 fluorescence intensity (a.u.).
The same measure for “GGCGGCGGCATCTCCTGGCGGCTCCCGTCCATGGCCGCTGCGGAGTCACCTAGTGCAG”: 6760 fluorescence intensity (a.u.); for “CCTCCATCGATCGATCGTCTGCGATCCTTGTCACGGCTTGCGGAGTCACCTAGTGCAG”: 3470 fluorescence intensity (a.u.); for “AACTGCACTGTGCGTGTACACCATCTTAGCTGGAACGTGCCGGAGTCACCTAGTGCAG”: 3400 fluorescence intensity (a.u.).
Turning to “ACTCATATTGCAAATGTCATGTTTATTGTCTTAATATTTTCGGAGTCACCTAGTGCAG”, the binding signal is 3950 fluorescence intensity (a.u.).
“ATTCATTGTTAAATATATTTTCATGTAGGCATATAATTTTCGGAGTCACCTAGTGCAG”: the binding signal is 17100 fluorescence intensity (a.u.).
Consider “CGGTCGGTCCATCGCCCTCCGTCCCCATCCCCACCGTCACCGGAGTCACCTAGTGCAG”, for which the binding signal is 41900 fluorescence intensity (a.u.).
“CTTGTTGTGTTGTGCACTTGTGCTGCATCTGTGCAGTGTGCGGAGTCACCTAGTGCAG”: the binding signal is 3590 fluorescence intensity (a.u.).
“CGCCGACCCACTCACCCACACAACGCGTGCGGTCGCCGGACGGAGTCACCTAGTGCAG”: the binding signal is 5590 fluorescence intensity (a.u.).
With “CGAATTTCTAAGCTCTCACAACCTACTCGTTAGAGTTAACCGGAGTCACCTAGTGCAG”, the binding signal was 3660 fluorescence intensity (a.u.).
Consider “ACCGTCCCGCTAATCTTTTCCCAAACCCATTCGATTTGGGCGGAGTCACCTAGTGCAG”, for which the binding signal is 3430 fluorescence intensity (a.u.).
Under “ACGTGAGCGCTCCCGGTCATTAGGAGCCACGTCAGCTGGCCGGAGTCACCTAGTGCAG” stands 24400 fluorescence intensity (a.u.).
Turning to “ATTTAGTGCTAAATATGTAGTTTCATGATACATCATGTTACGGAGTCACCTAGTGCAG”, the binding signal was 3850 fluorescence intensity (a.u.).
In the case of “TATGGTATTGTCACACATGGCAGGTACAAACCACTGAGCTCGGAGTCACCTAGTGCAG”, the binding signal was 3720 fluorescence intensity (a.u.).
“AGACTGAAAGAGAGAGGAAGGAAGAGAGATGACGTGGCATCGGAGTCACCTAGTGCAG”: the binding signal is 35800 fluorescence intensity (a.u.).
Consider “CATCCACACTGGCGACTCCGTCGTGGCGAGTGTGGCGGTGCGGAGTCACCTAGTGCAG”, for which the binding signal was 4920 fluorescence intensity (a.u.).
For “CTGCCACAAACCACGGAGACAACACACGCAGCTCGCCGACCGGAGTCACCTAGTGCAG”, the binding signal was 3400 fluorescence intensity (a.u.).
As for “GCCATGGTGACGATGGCGAGGTAGAGGGAGGTGACGTAGCCGGAGTCACCTAGTGCAG”, the binding signal was 5870 fluorescence intensity (a.u.).
For “CACCATTTTGGGCCGACACATCAAGCAGGCCAACGCGCAGCGGAGTCACCTAGTGCAG”, the binding signal was 3300 fluorescence intensity (a.u.).
In the case of “AAGTTTGCAGCATTTCGCAAGCTAGCCACGACTTCGGAGACGGAGTCACCTAGTGCAG”, the binding signal is 31000 fluorescence intensity (a.u.).
Regarding “AAGCGACGACTTCCTCCCCTCCCACACGCATCCCGTCATCCGGAGTCACCTAGTGCAG”, the binding signal was 3510 fluorescence intensity (a.u.).
On to “TGCTGCAAAAGAAATTGGGTTTTGTTTATCCTCTATCATTCGGAGTCACCTAGTGCAG”, for which the binding signal was 4230 fluorescence intensity (a.u.).
On to “CCAAAGTGCTTAGAATAAACCCTAACCTGGCCCTTATCATCGGAGTCACCTAGTGCAG”, for which the binding signal is 24300 fluorescence intensity (a.u.).
The same measure for “AGCCCCAGCTTCGCGGCCCCGCTTGACCAGTAGATACACGCGGAGTCACCTAGTGCAG”: 3560 fluorescence intensity (a.u.).
For the sequence “CTCGCCGTGGGTGTTTAGCAGCAGGGACGTGGCCGTCGCCCGGAGTCACCTAGTGCAG”, the binding signal was 5100 fluorescence intensity (a.u.).
As to “ATCTAACTCATCCATTTGCTGGTGAGACTTGACATCCCAACGGAGTCACCTAGTGCAG”, the binding signal was 3430 fluorescence intensity (a.u.).
Under “AATCGAAAGGGACATCATACTCGCCACGCCGGATCTCGCCCGGAGTCACCTAGTGCAG” stands 4420 fluorescence intensity (a.u.); under “GGCGCACCCGCGGCGCGTTCATCGCCGCCGTGTTCTCCATCGGAGTCACCTAGTGCAG”, 3750 fluorescence intensity (a.u.).
With “GTTCGTTAGACTGACATGTGGGGCCAGGATATGCTCGGATCGGAGTCACCTAGTGCAG”, the binding signal is 4150 fluorescence intensity (a.u.).
Turning to “CGTCTTGGTACAGTGCGTACACGTCTCGATCTATATTAGTCGGAGTCACCTAGTGCAG”, the binding signal is 7250 fluorescence intensity (a.u.).
Take “AGCGCCAGTCCCGTTGGCGCTGACACGGCCAACCTCAGCGCGGAGTCACCTAGTGCAG”: the binding signal was 5990 fluorescence intensity (a.u.).
As to “AGCAAAGGCAGCAGCCAGCAGTTTCAGAGTTCAGGGATGCCGGAGTCACCTAGTGCAG”, the binding signal was 35200 fluorescence intensity (a.u.).
As for “CCCACGCCGCCGCCGCCGCCACGTCCGCCTTTTCCCCGCTCGGAGTCACCTAGTGCAG”, the binding signal is 10900 fluorescence intensity (a.u.).
